Some of these results come from one statement about several compounds together.
Test system: Aedes aegypti (yellow fever mosquito)
Experiment: Example B12: activity against Aedes aegypti, dry deposit in tissue culture plates
Type: in vivo
Conditions: application rate of 200 ppm in ethanol; adult females; after 48 h and/or 24 h

Row | Compound | control of Aedes aegypti
1 | CCS(=O)(=O)c1cc(C2(C#N)CC2)cnc1-c1nc2cc(C(F)(F)F)cnc2n1C [Compound P9, 1-[5-ethylsulfonyl-6-[3-methyl-6-(trifluoromethyl)imidazo[4,5-b]pyridin-2-yl]-3-pyridyl]cyclopropanecarbonitrile] | at least 80%
2 | CCS(=O)(=O)c1cc(C2(C#N)CC2)cnc1-c1nc2cc(SC(F)(F)F)cnc2n1C [Compound P13, 1-[5-ethylsulfonyl-6-[3-methyl-6-(trifluoro-methylsulfanyl)imidazo[4,5-b]pyridin-2-yl]-3-pyridyl]cyclopropanecarbonitrile] | at least 80%
